Data: PMC6449437
These are yes or no findings as the source states them, for the method shown. Binding seen in cells or lysates may run through a third protein. Some entries that bind do so weakly or less than the wild type.

Amino acid sequences for entries named in this document (tags omitted).
UniProt Q64669: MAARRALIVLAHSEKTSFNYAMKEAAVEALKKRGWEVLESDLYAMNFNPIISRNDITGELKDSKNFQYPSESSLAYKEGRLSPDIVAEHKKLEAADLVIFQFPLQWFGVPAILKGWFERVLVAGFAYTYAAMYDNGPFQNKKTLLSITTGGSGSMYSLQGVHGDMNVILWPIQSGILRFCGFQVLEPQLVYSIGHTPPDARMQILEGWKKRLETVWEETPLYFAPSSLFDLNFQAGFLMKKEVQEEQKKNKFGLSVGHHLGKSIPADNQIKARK
UniProt Q80XI3: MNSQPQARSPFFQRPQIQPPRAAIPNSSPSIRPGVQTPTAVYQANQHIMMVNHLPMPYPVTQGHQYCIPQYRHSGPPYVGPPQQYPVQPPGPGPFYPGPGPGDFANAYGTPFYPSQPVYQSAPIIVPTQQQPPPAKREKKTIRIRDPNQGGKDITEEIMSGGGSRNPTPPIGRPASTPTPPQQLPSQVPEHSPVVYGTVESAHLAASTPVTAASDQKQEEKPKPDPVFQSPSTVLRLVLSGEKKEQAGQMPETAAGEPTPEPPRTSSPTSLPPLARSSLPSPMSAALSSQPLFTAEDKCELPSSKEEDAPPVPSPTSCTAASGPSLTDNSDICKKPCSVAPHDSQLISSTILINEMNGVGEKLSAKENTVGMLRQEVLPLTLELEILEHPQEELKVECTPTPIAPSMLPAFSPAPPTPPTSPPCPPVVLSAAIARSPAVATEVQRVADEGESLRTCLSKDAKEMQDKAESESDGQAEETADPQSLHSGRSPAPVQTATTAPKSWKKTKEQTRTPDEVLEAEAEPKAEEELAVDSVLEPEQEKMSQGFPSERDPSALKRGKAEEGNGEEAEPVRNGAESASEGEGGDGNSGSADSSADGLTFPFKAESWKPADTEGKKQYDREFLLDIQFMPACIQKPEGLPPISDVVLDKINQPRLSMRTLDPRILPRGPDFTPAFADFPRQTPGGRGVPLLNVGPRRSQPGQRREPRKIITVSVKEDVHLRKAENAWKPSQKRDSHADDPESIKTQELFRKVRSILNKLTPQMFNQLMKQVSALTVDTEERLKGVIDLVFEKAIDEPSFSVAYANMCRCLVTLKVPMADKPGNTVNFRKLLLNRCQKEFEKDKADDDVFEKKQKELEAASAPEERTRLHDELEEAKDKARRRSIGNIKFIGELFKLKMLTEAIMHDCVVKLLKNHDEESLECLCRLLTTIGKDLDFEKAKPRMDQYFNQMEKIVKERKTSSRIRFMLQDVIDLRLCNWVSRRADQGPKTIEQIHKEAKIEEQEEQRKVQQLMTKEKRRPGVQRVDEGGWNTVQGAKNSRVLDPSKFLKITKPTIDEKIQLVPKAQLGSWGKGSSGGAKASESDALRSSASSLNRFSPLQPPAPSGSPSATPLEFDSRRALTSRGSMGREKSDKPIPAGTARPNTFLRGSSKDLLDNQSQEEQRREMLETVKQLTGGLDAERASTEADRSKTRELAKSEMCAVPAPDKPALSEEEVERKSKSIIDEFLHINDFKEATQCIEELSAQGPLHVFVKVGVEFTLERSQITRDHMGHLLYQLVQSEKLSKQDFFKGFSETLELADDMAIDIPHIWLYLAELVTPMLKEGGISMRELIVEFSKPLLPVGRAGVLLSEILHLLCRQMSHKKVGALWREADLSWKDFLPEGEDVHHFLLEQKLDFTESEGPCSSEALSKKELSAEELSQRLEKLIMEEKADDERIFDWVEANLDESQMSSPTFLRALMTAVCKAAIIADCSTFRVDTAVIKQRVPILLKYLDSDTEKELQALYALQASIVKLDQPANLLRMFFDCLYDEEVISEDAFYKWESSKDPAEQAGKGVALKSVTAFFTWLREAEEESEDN

Target: NQO1 [NAD(P)H:quinone oxidoreductase] (mouse (endogenous in NIH-3T3)) (UniProt Q64669)
Assay: co-IP; extracts of NIH-3T3 cells either untransfected or transfected with NQO1 cDNA, immunoprecipitation with anti-NQO1 antibodies, western blot with the indicated antibodies

In the case of “eukaryotic mRNA translation initiation factor 4GII (eIF4GII) (from UniProt Q80XI3 1-1579)”, the binding is reported as “binds”.
